The record followed here is paper PMC3422239.

No constants are given. Whether binding was seen depends on the method and setting. A result given as binding can be weak or reduced; the word gives no strength. For some assays here: Tags and fused reporters may be left off the sequences shown.

Test [1] deals with T1, endogenous IRS-2 of Fao (rat hepatoma) cells (rat (endogenous in Fao)) (UniProt F1MAL5).
T1 sequence: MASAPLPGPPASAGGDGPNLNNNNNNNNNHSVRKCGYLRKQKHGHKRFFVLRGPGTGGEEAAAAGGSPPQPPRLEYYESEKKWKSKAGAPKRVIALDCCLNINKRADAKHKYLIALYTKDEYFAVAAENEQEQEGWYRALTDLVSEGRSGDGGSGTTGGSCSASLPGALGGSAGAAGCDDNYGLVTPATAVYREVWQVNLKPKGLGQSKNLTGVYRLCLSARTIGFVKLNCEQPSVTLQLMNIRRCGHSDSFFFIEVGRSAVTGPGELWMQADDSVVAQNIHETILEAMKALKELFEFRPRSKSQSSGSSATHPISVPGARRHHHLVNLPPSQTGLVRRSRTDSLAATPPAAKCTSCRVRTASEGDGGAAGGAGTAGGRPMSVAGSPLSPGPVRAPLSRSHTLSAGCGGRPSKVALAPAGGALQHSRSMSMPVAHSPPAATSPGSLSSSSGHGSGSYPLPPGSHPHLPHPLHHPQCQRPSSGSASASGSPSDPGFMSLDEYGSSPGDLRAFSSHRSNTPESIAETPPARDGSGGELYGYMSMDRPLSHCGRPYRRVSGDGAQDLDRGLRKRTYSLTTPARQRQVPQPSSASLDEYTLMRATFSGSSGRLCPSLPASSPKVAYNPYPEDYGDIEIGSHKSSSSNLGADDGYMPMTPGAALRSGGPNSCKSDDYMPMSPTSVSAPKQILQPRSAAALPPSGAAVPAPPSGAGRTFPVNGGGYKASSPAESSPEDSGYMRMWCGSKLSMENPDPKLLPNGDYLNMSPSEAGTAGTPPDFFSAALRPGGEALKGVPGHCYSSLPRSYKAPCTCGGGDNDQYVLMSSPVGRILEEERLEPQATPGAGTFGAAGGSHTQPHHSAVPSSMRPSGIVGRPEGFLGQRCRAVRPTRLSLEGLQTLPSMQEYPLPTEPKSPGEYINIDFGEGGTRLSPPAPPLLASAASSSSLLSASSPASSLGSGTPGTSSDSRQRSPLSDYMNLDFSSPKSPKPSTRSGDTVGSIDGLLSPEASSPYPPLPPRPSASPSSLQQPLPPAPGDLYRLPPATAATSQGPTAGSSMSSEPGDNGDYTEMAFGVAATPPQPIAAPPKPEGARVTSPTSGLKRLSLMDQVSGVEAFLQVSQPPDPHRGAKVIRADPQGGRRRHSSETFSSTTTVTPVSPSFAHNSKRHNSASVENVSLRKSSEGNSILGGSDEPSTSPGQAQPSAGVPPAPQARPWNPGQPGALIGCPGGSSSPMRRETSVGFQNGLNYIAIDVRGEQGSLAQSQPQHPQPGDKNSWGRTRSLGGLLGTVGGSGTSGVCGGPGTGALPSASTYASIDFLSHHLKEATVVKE
In words: far-Western, overlay or dot blot; IRS-2 immunoprecipitated with IRS-2 antibody from 250 µg Fao cell protein, 5-15% gel, nitrocellulose; overlay with 14-3-3ζ-HRP; cells serum starved, 10 nM insulin or 50 ng/ml IGF-1 for 30 min; both purified.

In test [2] the target is T2, GFP-IRS2-T401A (mouse) (UniProt P81122).
T2 sequence: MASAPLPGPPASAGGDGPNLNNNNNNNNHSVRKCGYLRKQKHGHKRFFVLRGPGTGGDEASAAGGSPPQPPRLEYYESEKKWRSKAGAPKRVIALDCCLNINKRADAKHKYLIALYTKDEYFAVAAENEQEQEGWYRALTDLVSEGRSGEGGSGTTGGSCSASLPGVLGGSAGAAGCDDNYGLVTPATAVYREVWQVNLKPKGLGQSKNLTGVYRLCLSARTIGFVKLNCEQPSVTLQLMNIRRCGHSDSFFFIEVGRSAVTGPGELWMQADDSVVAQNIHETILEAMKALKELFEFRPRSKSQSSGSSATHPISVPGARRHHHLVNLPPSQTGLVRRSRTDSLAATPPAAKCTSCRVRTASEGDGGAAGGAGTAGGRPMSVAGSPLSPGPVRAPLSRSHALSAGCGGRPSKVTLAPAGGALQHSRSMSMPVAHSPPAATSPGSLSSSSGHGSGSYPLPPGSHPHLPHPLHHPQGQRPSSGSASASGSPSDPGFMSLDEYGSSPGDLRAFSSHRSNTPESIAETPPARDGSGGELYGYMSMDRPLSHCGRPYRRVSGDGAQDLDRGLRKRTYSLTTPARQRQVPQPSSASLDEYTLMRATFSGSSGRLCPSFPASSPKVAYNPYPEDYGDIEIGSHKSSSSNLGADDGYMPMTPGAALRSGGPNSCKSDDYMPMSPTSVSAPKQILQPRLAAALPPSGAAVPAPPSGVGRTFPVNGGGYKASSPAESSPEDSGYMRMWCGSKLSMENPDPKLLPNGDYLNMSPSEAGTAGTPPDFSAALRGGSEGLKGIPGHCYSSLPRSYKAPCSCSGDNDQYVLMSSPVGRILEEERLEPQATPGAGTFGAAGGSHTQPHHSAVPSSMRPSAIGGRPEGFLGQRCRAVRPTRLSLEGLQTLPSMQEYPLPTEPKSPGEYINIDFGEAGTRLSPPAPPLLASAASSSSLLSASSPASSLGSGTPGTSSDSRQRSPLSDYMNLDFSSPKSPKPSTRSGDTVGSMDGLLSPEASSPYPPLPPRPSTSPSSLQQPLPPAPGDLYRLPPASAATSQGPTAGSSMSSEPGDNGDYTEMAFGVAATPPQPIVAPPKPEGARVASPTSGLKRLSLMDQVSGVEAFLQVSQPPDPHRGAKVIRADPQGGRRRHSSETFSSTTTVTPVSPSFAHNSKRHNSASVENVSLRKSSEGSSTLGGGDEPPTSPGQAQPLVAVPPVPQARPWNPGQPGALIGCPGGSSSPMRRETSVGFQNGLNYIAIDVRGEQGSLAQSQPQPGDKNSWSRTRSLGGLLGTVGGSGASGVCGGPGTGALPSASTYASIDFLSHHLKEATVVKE
As to the kind of experiment: far-Western, overlay or dot blot; GFP-tagged IRS-2 pulled down with GFP-Trap from HEK293 or Flp-In HEK293 lysates, SDS-PAGE, nitrocellulose; membrane incubated overnight at 4°C with 14-3-3ζ-HRP, ECL; cells serum starved, IGF-1, or PI-103, wortmannin or Akti-1/2 before IGF-1; both purified.

As to Recombinant human 14-3-3ζ-HRP, the binding result in test [1] and in test [2] was “binds” in each case.
